Results are given in words; binding and its absence hold for the method and conditions named. Binding seen in cells or lysates may run through a third protein. Some entries that bind do so weakly or less than the wild type. Tags and fused reporters may be left off the sequences shown.

The record followed here is article PMC8505262.

The labels stand for the following.
B1: Homer3 (protein, UniProt Q99JP6 1-356)
chain: MSTAREQPIFSTRAHVFQIDPTTKRNWIPAGKHALTVSYFYDATRNVYRIISIGGAKAIINSTVTPNMTFTKTSQKFGQWADSRANTVYGLGFASEQQLTQFAEKFQEVKEAARLAREKSQDGGEFTSTGLALASHQVPPSPLVSTNGPGEEKLFRSQSADTPGPTERERLKKMLSEGSVGEVQWEAEFFALQDSNQRLAGALREANAAATQWRQQLEVQRAEAELLRQRVAELEAQVAVEPVRAGEKEATSQSVEQLEARVQTKDQTLKNQSTGTREAPDTAEREETQQQVQDLETRNAELEQQLRSMECNLEEARAERERARAEVGRAAQLLDVRLFELSELREGLARLAEAAP
B2: vacuolar protein sorting-associated protein 37B (protein, UniProt Q8R0J7 1-285)
chain: MAGAVSEARFAGLSLMQLHELLEDDAQLGDMVRGMEEAQTVQLNKEMTLASNRSLAEGNLLYQPQLDAQKARLTQKYQELQVLFEAYQIKKTKLDKQSNNASLETLLALLQAEGAKIEEDTENMAEKFLDGELPLDSFIDVYQSKRKLAHMRRVKVEKLQELVLKGQRHPQAGAPPPPRVPEPSPATALPYPSLEATGLPSVVPRRIPPPPPPVPAGHVATPFAAAMGSGQVSAYPGLQCPPLPPRVGLPSQQGFSAQLVSPYPPALPQRPPPRMAPHQPGFILQ

This test addresses T1, HA-tagged Neurensin-2 (UniProt Q5HZK2).
T1 sequence: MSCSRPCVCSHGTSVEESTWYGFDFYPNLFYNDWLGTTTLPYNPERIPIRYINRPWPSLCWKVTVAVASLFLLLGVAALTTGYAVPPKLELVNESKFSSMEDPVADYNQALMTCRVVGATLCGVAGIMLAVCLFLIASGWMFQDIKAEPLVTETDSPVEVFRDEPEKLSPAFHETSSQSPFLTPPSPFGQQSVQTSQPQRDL
Briefly: co-IP; co-IP of HA-Nrsn2 or HA control from transfected N2a cells; immunoblots of the partners beside 1% inputs. A general note: Immunoblotting shows a protein as a band on a membrane.
For “actin related protein 2/3 complex subunit 1b (from UniProt Q9WV32 1-372)”, the binding result is on record as “binds”.
The entry for B1 is “binds”; for B2 it is “binds”.
